Reference: paper doi:10.1101/2021.01.12.426368
Results are given in words; binding and its absence hold for the method and conditions named. Binding seen in cells or lysates may run through a third protein. Some results given as binding are weak or reduced against the parent protein; the word gives no strength.

Sequences of proteins named here, by UniProt entry; tags and fusion partners are left off.
UniProt O43707: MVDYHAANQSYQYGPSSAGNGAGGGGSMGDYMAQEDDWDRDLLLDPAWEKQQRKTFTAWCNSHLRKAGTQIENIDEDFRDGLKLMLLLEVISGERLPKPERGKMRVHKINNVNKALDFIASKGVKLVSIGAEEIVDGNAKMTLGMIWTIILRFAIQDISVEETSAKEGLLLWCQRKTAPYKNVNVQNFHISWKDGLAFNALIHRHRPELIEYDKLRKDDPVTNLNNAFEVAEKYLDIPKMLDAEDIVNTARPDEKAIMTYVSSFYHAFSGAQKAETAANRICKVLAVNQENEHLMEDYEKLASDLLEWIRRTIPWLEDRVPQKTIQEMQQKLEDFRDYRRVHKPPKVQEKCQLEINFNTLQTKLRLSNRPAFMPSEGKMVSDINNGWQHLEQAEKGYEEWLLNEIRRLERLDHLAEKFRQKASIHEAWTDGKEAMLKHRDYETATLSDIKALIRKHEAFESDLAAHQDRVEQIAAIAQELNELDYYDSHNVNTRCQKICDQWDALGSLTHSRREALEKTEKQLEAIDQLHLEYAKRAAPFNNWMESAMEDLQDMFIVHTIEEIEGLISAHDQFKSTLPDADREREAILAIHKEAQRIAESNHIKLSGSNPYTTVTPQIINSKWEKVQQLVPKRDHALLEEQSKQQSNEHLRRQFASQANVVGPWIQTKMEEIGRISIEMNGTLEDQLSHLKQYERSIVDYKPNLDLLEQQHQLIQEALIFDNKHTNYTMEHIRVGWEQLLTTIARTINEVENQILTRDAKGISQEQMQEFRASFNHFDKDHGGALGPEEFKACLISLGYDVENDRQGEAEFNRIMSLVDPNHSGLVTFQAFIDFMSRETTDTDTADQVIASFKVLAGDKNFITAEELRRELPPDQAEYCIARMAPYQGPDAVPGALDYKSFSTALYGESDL
UniProt P35579: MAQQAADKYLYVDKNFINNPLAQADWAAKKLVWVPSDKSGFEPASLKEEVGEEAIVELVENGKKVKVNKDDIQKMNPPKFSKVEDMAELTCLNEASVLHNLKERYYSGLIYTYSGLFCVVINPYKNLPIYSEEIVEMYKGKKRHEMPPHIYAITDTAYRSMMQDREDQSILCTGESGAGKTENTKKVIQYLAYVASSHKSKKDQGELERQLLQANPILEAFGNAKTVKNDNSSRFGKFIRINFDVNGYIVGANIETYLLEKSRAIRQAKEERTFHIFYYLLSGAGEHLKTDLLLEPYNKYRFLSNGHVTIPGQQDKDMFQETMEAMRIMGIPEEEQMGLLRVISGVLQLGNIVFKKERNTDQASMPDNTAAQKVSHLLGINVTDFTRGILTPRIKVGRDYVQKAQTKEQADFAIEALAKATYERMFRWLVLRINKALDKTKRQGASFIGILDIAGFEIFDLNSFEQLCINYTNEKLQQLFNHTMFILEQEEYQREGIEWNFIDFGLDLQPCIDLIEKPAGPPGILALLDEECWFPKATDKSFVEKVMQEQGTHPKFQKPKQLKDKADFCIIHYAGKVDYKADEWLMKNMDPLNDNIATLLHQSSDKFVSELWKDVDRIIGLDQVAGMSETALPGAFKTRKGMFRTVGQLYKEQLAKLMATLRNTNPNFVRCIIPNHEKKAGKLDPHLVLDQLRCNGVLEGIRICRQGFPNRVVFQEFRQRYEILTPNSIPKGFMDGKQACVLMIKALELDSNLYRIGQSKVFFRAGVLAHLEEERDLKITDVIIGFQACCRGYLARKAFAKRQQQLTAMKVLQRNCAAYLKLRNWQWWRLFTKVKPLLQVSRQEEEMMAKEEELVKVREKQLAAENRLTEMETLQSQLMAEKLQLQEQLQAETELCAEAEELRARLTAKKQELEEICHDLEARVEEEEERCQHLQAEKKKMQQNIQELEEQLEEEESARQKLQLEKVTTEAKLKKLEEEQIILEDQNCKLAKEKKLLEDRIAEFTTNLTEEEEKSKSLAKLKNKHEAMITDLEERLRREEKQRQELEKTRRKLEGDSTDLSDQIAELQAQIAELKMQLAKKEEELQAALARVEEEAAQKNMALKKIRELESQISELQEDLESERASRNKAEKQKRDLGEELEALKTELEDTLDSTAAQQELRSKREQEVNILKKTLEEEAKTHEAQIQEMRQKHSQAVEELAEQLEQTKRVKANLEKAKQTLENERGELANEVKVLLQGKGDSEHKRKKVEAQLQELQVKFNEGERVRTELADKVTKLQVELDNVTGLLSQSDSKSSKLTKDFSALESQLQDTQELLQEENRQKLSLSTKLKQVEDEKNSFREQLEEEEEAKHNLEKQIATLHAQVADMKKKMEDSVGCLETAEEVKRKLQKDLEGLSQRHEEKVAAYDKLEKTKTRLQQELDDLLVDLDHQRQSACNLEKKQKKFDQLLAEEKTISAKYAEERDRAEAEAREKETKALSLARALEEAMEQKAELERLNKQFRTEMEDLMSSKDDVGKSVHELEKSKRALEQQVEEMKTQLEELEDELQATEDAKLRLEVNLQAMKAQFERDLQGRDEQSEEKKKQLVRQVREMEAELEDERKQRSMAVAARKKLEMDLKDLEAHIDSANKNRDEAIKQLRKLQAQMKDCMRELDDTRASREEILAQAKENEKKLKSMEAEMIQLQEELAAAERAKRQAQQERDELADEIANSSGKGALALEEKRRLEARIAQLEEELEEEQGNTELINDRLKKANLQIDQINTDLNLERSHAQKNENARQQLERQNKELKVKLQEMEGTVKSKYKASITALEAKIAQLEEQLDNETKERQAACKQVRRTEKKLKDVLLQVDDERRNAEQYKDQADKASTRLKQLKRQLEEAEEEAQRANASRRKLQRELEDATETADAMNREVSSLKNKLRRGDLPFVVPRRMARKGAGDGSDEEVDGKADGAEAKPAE

Legend:
[1] = biological target: eGFP-ACTN4 (UniProt O43707); assay: proximity ligation
[2] = biological target: α-actinin-4 (human (endogenous in MDA-MB-231 and HT-1080)) (UniProt O43707); assay: proximity ligation
[3] = biological target: α-actinin-4 (human (endogenous in MDA-MB-231 and HT-1080)) (UniProt O43707); assay: co-IP

Measured: binding

non-muscle myosin IIA (from UniProt P35579 1-1960)
binds: all assays above
